Primary screen of a compound library

Source: ChEMBL document CHEMBL3988442, “University of Dundee, Small-Polar-MMV Screening Library” (2021).

Results are given as percent effect. The record does not define 0% and 100%; most values in the screen are far below 50% and negative numbers occur (in some assays of this library far below -100). The compounds are a random part of those screened.

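Whole-parasite assay of Trypanosoma brucei over 72 hours; the read-out is not stated. Tested at 30 µM. Higher reads as stronger inhibition (inferred: compounds with an IC50 in retests scored well above the rest). Values scatter widely below zero; nearly all retest evidence comes from the higher of the two concentrations used. Of about 64,000 compounds tested this way, about 940 (1.5%) reached 50% or more in at least one test.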

CCOc1ccc(CNC(=O)N2CCCC(CO)C2)cc1F (stereo not drawn) gave -8.863%.
COc1ccc(OCCc2cc(C3CNCCO3)nn2C)cc1 (stereo not drawn) gave 1.828%.
CCc1ccc(CCC(=O)N2CCC(=O)Nc3cccnc32)cc1 gave -81.92%.
CN(C)CC(=O)NC1CC(C)(C)Cc2nc(C(C)(C)C)ncc21 (stereo not drawn) gave -19.3%.
O=S(=O)(Cc1ccccc1)NCc1ccnc(O)c1 gave 7.726%.
COc1ccc(CN(C)c2ccc(-c3nccn3C)nn2)cc1OC gave -115.4%.
O=C(O)C(F)(F)F.[H][C@]12CN(CC)C[C@@]1(C(=O)O)CCCN(c1cc(OC)ncn1)C2 gave -49.91%.
O=C(O)C(F)(F)F.[H][C@]12CCC[C@@]1(COCc1ccccn1)CN(C(=O)N1CCCC1)C2 gave 8.939%.
CC1=C(CCN2C[C@H](O)[C@@H](N3CCOCC3)C2)C(C)(C)CCC1 gave -10.1%.
NC(=O)C(Cc1ccccc1)NS(=O)(=O)Cc1ccccc1F (stereo not drawn) gave -10.94%.
Cc1nc(CCNC(C)c2ccc3c(c2)OCCCO3)cs1 (stereo not drawn) gave -7.258%.
COc1cc(N2C[C@@H](C)[C@](O)(C3CC3)C2)nc(N)n1 gave -3.85%.
CN(Cc1cscn1)C1CCN(C(=O)OC(C)(C)C)CC1 gave -51.03%.
Cc1cc(-c2nnn(CCC(N)=O)n2)ccc1F gave 23.38%.
CS(=O)(=O)N1CCCC(C(=O)Nc2cnn(Cc3ccc(F)cc3)c2)C1 (stereo not drawn) gave 1.983%.
CCS(=O)(=O)c1ccccc1N1CCC(NC(=O)C2CC2)CC1 gave -17.13%.
CNS(=O)(=O)c1ccsc1C(=O)OC gave -8.48%.
CC(c1ccco1)N(C(=O)c1cc2c([nH]c1=O)CCCC2=O)C1CC1 (stereo not drawn) gave -35.19%.
[H][C@]12CCN(C(=O)c3cc(C)on3)C[C@@]1([H])[C@H](CN1CCCC1)OC2 gave -18.02%.
CC(=O)N(Cc1c(F)cccc1F)C1CCCC1 gave -27.69%.
COCCOc1ccnc(-c2noc([C@@H]3CCCN3CC(C)(C)C)n2)c1 gave -36%.
Clc1cccc(CNC2CCN(CCc3ccncc3)CC2)c1 gave -27.26%.
COc1ccc(C(=O)N2CCC(Oc3ccccc3C)(C(=O)O)CC2)o1 gave -4.682%.
COc1ncccc1C(=O)N1CCC2(CC1)CC(OC)CO2.O=C(O)C(F)(F)F (stereo not drawn) gave -51.01%.
CC(C)C(c1cccnc1)N(C)C(=O)Cc1c(F)cccc1F (stereo not drawn) gave -22.96%.
CN(CCc1ccccc1)Cc1cc(C(=O)N2CCN(C)C(=O)C2)no1 gave 6.668%.
CS(=O)(=O)N1CC(=O)N(CCCc2ccccc2)CC(O)C1 (stereo not drawn) gave -5.511%.
Cc1[nH]ccc1C(=O)N1CCCN1C(=O)OC(C)(C)C gave -26.06%.
Cc1cc(C[C@@H]2COC[C@@H]2NC(=O)CN2CCCN(C)CC2)on1 gave -86.28%.
COc1c(CNCCNC(=O)c2ccc(C)c(F)c2)c(C)nn1C gave -0.657%.
Cn1cnc(S(=O)(=O)NCC(C)(O)c2ccc3c(c2)OCO3)c1 (stereo not drawn) gave 15.65%.
Cc1cc(C)cc(OCCN(C)C(=O)NC(C)c2nncn2C)c1 (stereo not drawn) gave -2.075%.
Cc1cnn(CC2CCCN2CC(=O)N(C)Cc2ccsc2)c1 (stereo not drawn) gave -11.59%.
CC(C)CCS(=O)(=O)CC(=O)N1CCCC1c1cnn(C)c1 (stereo not drawn) gave -0.5019%.
CCOCCC(=O)Nc1ccnn1-c1ccc(Cl)cc1 gave 6.987%.
O=C(NCC1=CCCCC1)C(c1cccnc1)N1CCCC1 (stereo not drawn) gave -104.5%.
CN1CC2(CCN(C(=O)CCCOCc3ccccc3)C2)OC1=O (stereo not drawn) gave -15.62%.
Cc1cnc(CN(Cc2ccccc2)CC2CCOCC2)cn1 gave -39.47%.
Cc1nn(C)c2nc(NCCCN3CCCC(C(N)=O)C3)sc12 (stereo not drawn) gave 7.045%.
CC(C)NC(=O)N1CCN(CC2CC2)CC2(CC(=O)N(C)C2)C1.O=C(O)C(F)(F)F (stereo not drawn) gave -3.694%.
O=C(c1ccncc1)N1CCCC1c1nc(O)cc(-c2ccccn2)n1 (stereo not drawn) gave -14.33%.
Cc1cc(C(N)=O)nc(C2(C)CCCN2Cc2cnn(C)c2)n1 (stereo not drawn) gave 5.48%.
CCc1nc(C)c(CN2CCN(c3ncnc4c(C)csc34)CC2)[nH]1 gave 7.583%.
CCNC(=O)O[C@H]1COCCN(c2nc3ccccc3s2)C1 gave -9.758%.
COCc1nn(C(C)C)c2c1CCN(Cc1cccs1)C2.O=C(O)C(F)(F)F gave 0.5138%.
CCNS(=O)(=O)c1ccc(C)c(C(=O)N(CCC#N)Cc2ccco2)c1 gave -46.21%.
Cn1cnnc1S(=O)(=O)C1CCN(S(=O)(=O)c2c(Cl)cccc2Cl)CC1 gave 36.55%.
COc1cc2c(cc1CNCc1cccnc1-n1cccn1)OC(C)C2.Cl (stereo not drawn) gave -103.8%.
Cc1nc(-c2ccc(F)cc2)cc(C2CCNCC2)n1 gave -5.19%.
COc1cccc(CN2CCN(c3cccc(C(C)C)n3)CC2)c1F gave 0.8518%.
CCOCCn1nc(C)cc1C(=O)N1CC[C@@](O)(COC)C(C)(C)C1 gave -11.78%.
CC(C)c1nc(C2CCCN2c2ncc(C(N)=O)cc2Cl)no1 (stereo not drawn) gave -34.9%.
O=C(NCC1CCCCO1)c1cc(Cn2cnc3ccccc32)[nH]n1 (stereo not drawn) gave -41.65%.
Cc1nc(C2CCCN2C(=O)c2cc3c(s2)CCC3)no1 (stereo not drawn) gave -12.04%.
O=C(CCN1CCCC1c1cccc(F)c1)N1CCc2sccc2C1 (stereo not drawn) gave 23.68%.
COC(=O)NCC(=O)N1CCC(Oc2cccc(C)c2)CC1 gave -48.83%.
CSCc1cccc(S(=O)(=O)N2CCCCC2)c1 gave -7.313%.
COc1ccc(Cn2cc(C(=O)N(C)Cc3ccon3)nn2)cc1 gave 7.635%.
CN(C)c1cc(CNC(=O)Nc2ccc(N3CCCC3)nc2)ccn1 gave 18.28%.

Repeated from the top, 6 entries:

Compound,Percent Effect
CCOc1ccc(CNC(=O)N2CCCC(CO)C2)cc1F (stereo not drawn),-8.863%
COc1ccc(OCCc2cc(C3CNCCO3)nn2C)cc1 (stereo not drawn),1.828%
CCc1ccc(CCC(=O)N2CCC(=O)Nc3cccnc32)cc1,-81.92%
CN(C)CC(=O)NC1CC(C)(C)Cc2nc(C(C)(C)C)ncc21 (stereo not drawn),-19.3%
O=S(=O)(Cc1ccccc1)NCc1ccnc(O)c1,7.726%
COc1ccc(CN(C)c2ccc(-c3nccn3C)nn2)cc1OC,-115.4%